Results from doi:10.1101/2024.01.31.574410.
Like-named read-outs stand apart in the source and are kept apart here. Results are given in words; binding and its absence hold for the method and conditions named. Binding seen in cells or lysates may run through a third protein. A yes stands for co-enrichment or nearness to the bait. Other partners may have been found. For some of these results: Sequences can lack the tags named with a protein.

By UniProt entry, the sequences of proteins in these tests, tags left out.
UniProt Q9UPT5: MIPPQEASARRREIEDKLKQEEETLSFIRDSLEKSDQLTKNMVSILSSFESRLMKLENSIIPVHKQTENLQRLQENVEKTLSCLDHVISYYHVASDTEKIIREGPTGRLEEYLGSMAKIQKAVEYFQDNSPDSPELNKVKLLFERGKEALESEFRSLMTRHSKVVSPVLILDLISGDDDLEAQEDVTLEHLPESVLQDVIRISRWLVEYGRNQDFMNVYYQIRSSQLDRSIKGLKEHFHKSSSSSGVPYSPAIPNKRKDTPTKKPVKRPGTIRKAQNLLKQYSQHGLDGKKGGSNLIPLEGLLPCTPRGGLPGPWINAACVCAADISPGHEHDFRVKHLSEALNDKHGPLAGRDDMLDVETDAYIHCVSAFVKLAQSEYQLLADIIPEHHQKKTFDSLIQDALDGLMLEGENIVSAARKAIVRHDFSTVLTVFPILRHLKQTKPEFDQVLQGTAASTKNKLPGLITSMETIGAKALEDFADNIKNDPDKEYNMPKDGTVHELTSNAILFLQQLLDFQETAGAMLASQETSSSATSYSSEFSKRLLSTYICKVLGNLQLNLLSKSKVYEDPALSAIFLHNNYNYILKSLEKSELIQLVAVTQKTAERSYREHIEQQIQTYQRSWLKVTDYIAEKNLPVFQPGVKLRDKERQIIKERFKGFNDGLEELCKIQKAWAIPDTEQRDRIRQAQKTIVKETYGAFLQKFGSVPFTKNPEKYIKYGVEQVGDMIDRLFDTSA
UniProt P46379: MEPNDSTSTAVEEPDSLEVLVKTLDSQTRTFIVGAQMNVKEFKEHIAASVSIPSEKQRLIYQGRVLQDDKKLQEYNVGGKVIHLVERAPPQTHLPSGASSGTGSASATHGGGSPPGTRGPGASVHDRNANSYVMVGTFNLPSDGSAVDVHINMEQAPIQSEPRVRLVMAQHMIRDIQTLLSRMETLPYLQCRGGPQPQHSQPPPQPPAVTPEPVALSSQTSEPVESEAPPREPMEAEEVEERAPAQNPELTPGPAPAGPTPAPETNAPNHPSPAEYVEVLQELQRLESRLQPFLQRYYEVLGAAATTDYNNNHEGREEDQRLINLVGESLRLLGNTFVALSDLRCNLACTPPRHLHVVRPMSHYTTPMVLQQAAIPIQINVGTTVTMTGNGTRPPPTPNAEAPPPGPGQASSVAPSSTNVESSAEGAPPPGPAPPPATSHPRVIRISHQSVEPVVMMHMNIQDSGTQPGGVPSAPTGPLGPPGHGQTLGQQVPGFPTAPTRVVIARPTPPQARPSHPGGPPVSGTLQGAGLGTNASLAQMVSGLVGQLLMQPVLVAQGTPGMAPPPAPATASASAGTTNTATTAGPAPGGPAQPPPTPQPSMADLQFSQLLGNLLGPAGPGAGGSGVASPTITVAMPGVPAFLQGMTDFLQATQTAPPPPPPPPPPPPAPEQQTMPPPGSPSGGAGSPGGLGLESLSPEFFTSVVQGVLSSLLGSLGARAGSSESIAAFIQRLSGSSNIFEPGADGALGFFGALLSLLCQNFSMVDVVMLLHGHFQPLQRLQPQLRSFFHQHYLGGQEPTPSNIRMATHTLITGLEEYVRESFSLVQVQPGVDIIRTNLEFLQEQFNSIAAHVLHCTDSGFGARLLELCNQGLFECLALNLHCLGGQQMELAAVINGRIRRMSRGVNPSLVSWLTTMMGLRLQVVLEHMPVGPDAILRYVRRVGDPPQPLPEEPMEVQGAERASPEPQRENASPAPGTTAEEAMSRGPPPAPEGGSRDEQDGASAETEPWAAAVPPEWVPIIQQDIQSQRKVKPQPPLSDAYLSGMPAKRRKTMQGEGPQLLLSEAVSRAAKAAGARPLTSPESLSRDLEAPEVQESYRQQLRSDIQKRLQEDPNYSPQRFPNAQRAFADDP
UniProt P62258: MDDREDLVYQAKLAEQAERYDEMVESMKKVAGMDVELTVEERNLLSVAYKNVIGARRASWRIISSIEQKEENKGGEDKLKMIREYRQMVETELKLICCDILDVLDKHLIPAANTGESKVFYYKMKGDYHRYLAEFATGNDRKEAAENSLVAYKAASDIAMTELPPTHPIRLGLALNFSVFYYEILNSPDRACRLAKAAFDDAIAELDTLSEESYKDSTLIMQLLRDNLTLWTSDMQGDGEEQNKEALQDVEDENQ
UniProt Q14318: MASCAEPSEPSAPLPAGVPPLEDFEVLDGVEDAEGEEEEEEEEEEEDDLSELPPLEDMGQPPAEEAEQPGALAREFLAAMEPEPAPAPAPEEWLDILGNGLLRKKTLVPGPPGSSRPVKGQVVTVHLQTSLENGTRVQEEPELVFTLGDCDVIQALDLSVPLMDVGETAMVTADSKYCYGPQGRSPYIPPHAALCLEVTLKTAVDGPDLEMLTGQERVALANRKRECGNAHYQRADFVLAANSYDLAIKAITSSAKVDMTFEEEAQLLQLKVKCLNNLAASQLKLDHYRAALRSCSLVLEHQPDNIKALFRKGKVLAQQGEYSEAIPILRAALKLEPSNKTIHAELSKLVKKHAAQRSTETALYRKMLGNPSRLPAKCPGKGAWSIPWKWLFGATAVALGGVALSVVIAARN
UniProt O94822: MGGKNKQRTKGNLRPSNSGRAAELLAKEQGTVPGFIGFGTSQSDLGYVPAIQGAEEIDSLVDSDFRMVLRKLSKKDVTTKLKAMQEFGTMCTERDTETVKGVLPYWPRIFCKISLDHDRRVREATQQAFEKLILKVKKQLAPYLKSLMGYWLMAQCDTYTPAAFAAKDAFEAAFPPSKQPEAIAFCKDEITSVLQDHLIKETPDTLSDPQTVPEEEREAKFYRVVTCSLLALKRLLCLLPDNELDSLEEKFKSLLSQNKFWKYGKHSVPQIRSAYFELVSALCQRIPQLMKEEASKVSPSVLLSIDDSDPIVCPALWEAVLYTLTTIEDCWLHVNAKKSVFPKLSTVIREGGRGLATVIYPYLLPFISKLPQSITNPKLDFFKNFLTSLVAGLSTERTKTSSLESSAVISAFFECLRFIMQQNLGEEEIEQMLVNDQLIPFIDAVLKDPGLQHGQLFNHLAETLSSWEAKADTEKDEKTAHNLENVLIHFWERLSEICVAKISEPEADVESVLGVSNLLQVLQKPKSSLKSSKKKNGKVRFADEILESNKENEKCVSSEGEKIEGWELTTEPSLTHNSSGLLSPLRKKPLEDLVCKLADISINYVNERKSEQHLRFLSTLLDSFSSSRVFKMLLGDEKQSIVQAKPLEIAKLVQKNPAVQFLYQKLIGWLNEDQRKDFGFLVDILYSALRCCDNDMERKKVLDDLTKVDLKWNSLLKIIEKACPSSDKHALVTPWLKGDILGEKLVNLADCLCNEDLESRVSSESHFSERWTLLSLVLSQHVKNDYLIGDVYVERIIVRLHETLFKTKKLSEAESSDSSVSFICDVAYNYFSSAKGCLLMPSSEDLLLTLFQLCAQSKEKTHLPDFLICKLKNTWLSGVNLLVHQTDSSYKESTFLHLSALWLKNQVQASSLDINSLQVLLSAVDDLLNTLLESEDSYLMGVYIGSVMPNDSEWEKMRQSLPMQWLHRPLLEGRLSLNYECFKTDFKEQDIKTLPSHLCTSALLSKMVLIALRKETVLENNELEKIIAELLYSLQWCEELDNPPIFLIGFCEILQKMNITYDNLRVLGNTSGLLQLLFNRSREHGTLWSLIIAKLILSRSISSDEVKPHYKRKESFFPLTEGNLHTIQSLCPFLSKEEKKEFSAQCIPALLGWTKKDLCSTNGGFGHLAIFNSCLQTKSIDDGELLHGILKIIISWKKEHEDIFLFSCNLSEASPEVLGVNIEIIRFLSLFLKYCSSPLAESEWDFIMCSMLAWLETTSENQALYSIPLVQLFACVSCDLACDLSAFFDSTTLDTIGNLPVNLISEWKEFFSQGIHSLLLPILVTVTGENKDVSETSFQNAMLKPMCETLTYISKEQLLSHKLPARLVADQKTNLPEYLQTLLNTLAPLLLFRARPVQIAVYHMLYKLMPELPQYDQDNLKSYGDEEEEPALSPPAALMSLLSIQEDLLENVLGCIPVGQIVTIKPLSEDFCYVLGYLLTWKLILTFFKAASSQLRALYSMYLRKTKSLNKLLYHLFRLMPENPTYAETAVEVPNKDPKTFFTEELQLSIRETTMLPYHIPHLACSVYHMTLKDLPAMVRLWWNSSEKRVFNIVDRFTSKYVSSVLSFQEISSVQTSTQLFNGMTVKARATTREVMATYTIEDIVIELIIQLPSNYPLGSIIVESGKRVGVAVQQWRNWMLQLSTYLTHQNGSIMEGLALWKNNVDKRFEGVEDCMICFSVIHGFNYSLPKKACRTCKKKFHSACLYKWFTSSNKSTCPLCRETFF

B1: glucosidase II alpha subunit (protein, UniProt Q14697 29-944)
chain: ITLAVDRSNFKTCEESSFCKRQRSIRPGLSPYRALLDSLQLGPDSLTVHLIHEVTKVLLVLELQGLQKNMTRFRIDELEPRRPRYRVPDVLVADPPIARLSVSGRDENSVELTMAEGPYKIILTARPFRLDLLEDRSLLLSVNARGLLEFEHQRAPRVSQGSKDPAEGDGAQPEETPRDGDKPEETQGKAEKDEPGAWEETFKTHSDSKPYGPMSVGLDFSLPGMEHVYGIPEHADNLRLKVTEGGEPYRLYNLDVFQYELYNPMALYGSVPVLLAHNPHRDLGIFWLNAAETWVDISSNTAGKTLFGKMMDYLQGSGETPQTDVRWMSETGIIDVFLLLGPSISDVFRQYASLTGTQALPPLFSLGYHQSRWNYRDEADVLEVDQGFDDHNLPCDVIWLDIEHADGKRYFTWDPSRFPQPRTMLERLASKRRKLVAIVDPHIKVDSGYRVHEELRNLGLYVKTRDGSDYEGWCWPGSAGYPDFTNPTMRAWWANMFSYDNYEGSAPNLFVWNDMNEPSVFNGPEVTMLKDAQHYGGWEHRDVHNIYGLYVHMATADGLRQRSGGMERPFVLARAFFAGSQRFGAVWTGDNTAEWDHLKISIPMCLSLGLVGLSFCGADVGGFFKNPEPELLVRWYQMGAYQPFFRAHAHLDTGRREPWLLPSQHNDIIRDALGQRYSLLPFWYTLLYQAHREGIPVMRPLWVQYPQDVTTFNIDDQYLLGDALLVHPVSDSGAHGVQVYLPGQGEVWYDIQSYQKHHGPQTLYLPVTLSSIPVFQRGGTIVPRWMRVRRSSECMKDDPITLFVALSPQGTAQGELFLDDGHTFNYQTRQEFLLRRFSFSGNTLVSSSADPEGHFETPIWIERVVIIGAGKPAAVVLQTKGSPESRLSFQHDPETSVLVLRKPGINVASDWSIHLR
B2: dolichyl-diphosphooligosaccharide-protein glycosyltransferase subunit (protein, UniProt P39656 43-456)
chain: SGPRTLVLLDNLNVRETHSLFFRSLKDRGFELTFKTADDPSLSLIKYGEFLYDNLIIFSPSVEDFGGNINVETISAFIDGGGSVLVAASSDIGDPLRELGSECGIEFDEEKTAVIDHHNYDISDLGQHTLIVADTENLLKAPTIVGKSSLNPILFRGVGMVADPDNPLVLDILTGSSTSYSFFPDKPITQYPHAVGKNTLLIAGLQARNNARVIFSGSLDFFSDSFFNSAVQKAAPGSQRYSQTGNYELAVALSRWVFKEEGVLRVGPVSHHRVGETAPPNAYTVTDLVEYSIVIQQLSNGKWVPFDGDDIQLEFVRIDPFVRTFLKKKGGKYSVQFKLPDVYGVFQFKVDYNRLGYTHLYSSTQVSVRPLQHTQYERFIPSAYPYYASAFSMMLGLFIFSIVFLHMKEKEKSD

Experiments:
Experiment in all cases: affinity purification with mass spectrometry
[1] = target: KV11.1-G601S (human) (UniProt Q12809)
[2] = target: wild-type (WT) KV11.1 (human) (UniProt Q12809)
[3] = target: KV11.1-G601S (human) (UniProt Q12809); remark: listed apart in the source
[4] = target: wild-type (WT) KV11.1 (human) (UniProt Q12809); remark: listed apart in the source

Molecule | binding [1] | binding [2] | binding [3] | binding [4]
EXOC7 (from UniProt Q9UPT5 1-735) | binds | – | – | –
BCL2-associated athanogene 6 (from UniProt P46379 1-1132) | binds | – | – | –
14-3-3ε (from UniProt P62258 1-255) | binds | binds | – | –
FK506 binding protein 8 (from UniProt Q14318 1-412) | binds | – | – | –
E3 ubiquitin ligase listerin (from UniProt O94822 1-1766) | binds | – | – | –
B1 | – | – | binds | binds
B2 | – | – | binds | binds
